These are yes or no findings as the source states them, for the method shown. Binding seen in cells or lysates may run through a third protein. Some entries that bind do so weakly or less than the wild type.

The chains behind the UniProt entries cited, without tags or fusion partners. Residues count along the entry.
UniProt P38936: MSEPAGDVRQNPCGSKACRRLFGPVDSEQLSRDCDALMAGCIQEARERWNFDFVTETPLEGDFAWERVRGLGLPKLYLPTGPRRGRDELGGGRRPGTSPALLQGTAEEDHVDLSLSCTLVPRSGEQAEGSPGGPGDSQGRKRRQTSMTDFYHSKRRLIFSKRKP
UniProt P18065, residues 36-325: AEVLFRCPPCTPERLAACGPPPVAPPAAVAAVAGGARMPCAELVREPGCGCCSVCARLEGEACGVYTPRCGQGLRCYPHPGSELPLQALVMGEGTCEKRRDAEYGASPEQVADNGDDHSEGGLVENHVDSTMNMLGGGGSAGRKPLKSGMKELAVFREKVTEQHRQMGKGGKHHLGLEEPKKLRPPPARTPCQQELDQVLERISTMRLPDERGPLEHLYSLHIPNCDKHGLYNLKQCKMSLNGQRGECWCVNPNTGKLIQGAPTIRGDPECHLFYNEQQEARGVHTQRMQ
UniProt P42771: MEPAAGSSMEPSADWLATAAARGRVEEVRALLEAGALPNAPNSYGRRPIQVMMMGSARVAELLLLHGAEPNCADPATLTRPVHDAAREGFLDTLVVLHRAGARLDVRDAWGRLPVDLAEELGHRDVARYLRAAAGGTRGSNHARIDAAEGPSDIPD

The record followed here is PMC7202509.

For assay [1], the target named is p21CIP1/WAF1 (human (endogenous in psoriatic keratinocytes)) (UniProt P38936). Briefly: co-IP; endogenous proteins in lysates of pso KC, left untreated or treated with M4 cytokines for 6 hours; EIA lysis buffer (250 mM NaCl, 50 mM Hepes pH 7.5, 0.1% NP-40, 5 mM EDTA); IP with anti-IGFBP2 or anti-p21 overnight, protein A/G beads, goat or mouse IgG as negative control; Western blot with anti-IGFBP2, -p21 or -p16. (Immunoblotting shows a protein as a band on a membrane.)

Assay [2] addresses Insulin-like growth factor binding protein 2 (human (endogenous in psoriatic keratinocytes)) (UniProt P18065). The description is as above.

Turning to “Insulin-like growth factor binding protein 2 (from UniProt P18065 36-325)”, the binding result in assay [1] is reported as “binds”. As to p16INK4a (from UniProt P42771 1-156), the binding entry in assay [2] is “no binding”. On the same count and under the same terms, the value for “p21CIP1/WAF1 (from UniProt P38936 1-164)” was “binds”.
